The text below walks through data of paper PMC10570026.

Results are given in words; binding and its absence hold for the method and conditions named. Binding seen in cells or lysates may run through a third protein. A yes stands for co-enrichment or nearness to the bait. Other partners may have been found.

For this assay, the target named is T1, Xenopus laevis DONSON (Xenopus laevis (endogenous in egg extract)) (UniProt Q5U4U4).
T1 sequence: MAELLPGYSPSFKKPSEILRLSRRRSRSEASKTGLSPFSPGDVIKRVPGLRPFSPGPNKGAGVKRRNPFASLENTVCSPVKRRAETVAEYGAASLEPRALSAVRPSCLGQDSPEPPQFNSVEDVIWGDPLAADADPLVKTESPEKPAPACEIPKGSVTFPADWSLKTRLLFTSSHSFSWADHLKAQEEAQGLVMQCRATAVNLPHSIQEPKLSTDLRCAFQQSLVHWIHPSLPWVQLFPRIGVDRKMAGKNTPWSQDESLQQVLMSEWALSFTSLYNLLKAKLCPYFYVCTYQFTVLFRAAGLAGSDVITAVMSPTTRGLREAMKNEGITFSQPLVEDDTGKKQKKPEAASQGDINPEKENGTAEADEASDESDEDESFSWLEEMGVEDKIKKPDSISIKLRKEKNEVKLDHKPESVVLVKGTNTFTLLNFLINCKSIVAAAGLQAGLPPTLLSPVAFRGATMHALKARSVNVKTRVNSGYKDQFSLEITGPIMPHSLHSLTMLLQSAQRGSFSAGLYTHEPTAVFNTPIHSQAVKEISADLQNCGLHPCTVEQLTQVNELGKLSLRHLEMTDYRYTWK
The experiment in a line: affinity purification with mass spectrometry; large scale α-DONSON immunoprecipitation from chromatin of egg extract with p97 inhibitor NMS873 or aphidicolin + caffeine, 60 min; LC/MS/MS.

As to RecQ4, the binding result is reported as “binds”.
As to TopBP1, the binding result is listed as “binds”.
